Record: PubChem BioAssay AID504774 (Drosophila RNAi Screening Center, 2011)
The screen tested about 23,000 reagents; below is a random part of those with a known target gene and a result. 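Values are quantile-normalised luminescence on an arbitrary scale; higher means more cells surviving MMS.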 Not all columns of the deposit are shown.

Purpose: 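Genes required for cells to withstand methyl methanesulphonate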 (primary screen)
System: Drosophila Kc167 cells
Reagent: long dsRNA against Drosophila genes, about 0.25 µg dsRNA per well
Duration: about 6 days: 3 days knock-down, then 3 days with or without MMS
Conditions: methyl methanesulphonate 0.004% (w/v) for 3 days after knock-down
Read-out: 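ATP-dependent luminescence as a measure of live cells in MMS-exposed wells, quantile normalised within each plate, with replicate values also given as a mean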
Direction: mean viability with MMS: higher = more surviving cells after MMS

What did the screen give for Tsp2A [DRSC18584]?
mean viability with MMS: 3.50e6

How did the screen score CG6418 [DRSC10633]?
mean viability with MMS: 3.22e6

What did the screen give for CG42445 [DRSC10858]?
mean viability with MMS: 3.50e6

Which result is listed for kat-60L1 [DRSC12184]?
mean viability with MMS: 3.87e6

For ocn [DRSC17020], what was measured?
mean viability with MMS: 3.55e6

With CG34196 [DRSC05704], what was measured?
mean viability with MMS: 3.51e6

What did the screen give for CG18518 [DRSC01509]?
mean viability with MMS: 3.58e6

What did the screen give for ey [DRSC17173]?
mean viability with MMS: 3.51e6

Which result is listed for SelT [DRSC02732]?
mean viability with MMS: 3.59e6

With eEF1gamma [DRSC16659], how do the results read?
mean viability with MMS: 3.29e6

For CG14995 [DRSC08452], what does the deposit list?
mean viability with MMS: 3.17e6

How did the screen score CG14995 [DRSC22991]?
mean viability with MMS: 3.53e6

What did the screen give for CG14383 [DRSC14841]?
mean viability with MMS: 3.38e6

For CG3420 [DRSC04995], what does the deposit list?
mean viability with MMS: 3.37e6

A portion taken from the entries so far:
CG14995 [DRSC22991]: mean viability with MMS = 3.53e6
CG14383 [DRSC14841]: mean viability with MMS = 3.38e6
